# From the supplement of paper PMC8728848
# The list shows a part of the results.
# B1: DCL-1 (Homo sapiens), Q8IX05 (protein)
# chain: MLRAALPALLLPLLGLAAAAVADCPSSTWIQFQDSCYIFLQEAIKVESIEDVRNQCTDHGADMISIHNEEENAFILDTLKKQWKGPDDILLGMFYDTDDASFKWFDNSNMTFDKWTDQDDDEDLVDTCAFLHIKTGEWKKGNCEVSSVEGTLCKTAIPYKRKYLSDNHILISALVIASTVILTVLGAIIWFLYKKHSDSRFTTVFSTAPQSPYNEDCVLVVGEENEYPVQFD
# Columns and labels:
# Experiment in all cases: glycan array binding signal (z-score within array); higher = stronger binding
# Conditions in all cases: glycan notation: IUPAC condensed, linker removed
# [1] = molecular target: Gal(b1-3)GlcNAc(a1-6)Gal(b1-4)GlcNAc
# How it was run: (§1)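 Glycan array data were curated from 3228 arrays in the Consortium for Functional Glycomics database and kept only where the protein sequence was available. Glycan names were converted to IUPAC-condensed notation, and columns mapping to the same glycan were averaged. The binding signal is a within-array Z-score, averaged across arrays of the same protein sequence at different concentrations or buffers and across linkers. Negative Z-scores can be read as non-binding.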
# [2] = molecular target: Gal(b1-3)GlcNAc(b1-2)Man(a1-3)[Gal(b1-3)GlcNAc(b1-2)Man(a1-6)]Man(b1-4)GlcNAc(b1-4)GlcNAc
# How it was run: as §1
# [3] = molecular target: Gal(b1-3)GlcNAc(b1-2)Man(a1-3)[Gal(b1-3)GlcNAc(b1-2)Man(a1-6)]Man(b1-4)GlcNAc(b1-4)[Fuc(a1-6)]GlcNAc
# How it was run: as §1
# [4] = molecular target: Gal(b1-3)GlcNAc(b1-2)[Gal(b1-3)GlcNAc(b1-6)]Man(a1-6)[Gal(b1-3)GlcNAc(b1-2)Man(a1-3)]Man(b1-4)GlcNAc(b1-4)GlcNAc
# How it was run: as §1
# [5] = molecular target: Gal(b1-3)GlcNAc(b1-3)Gal(b1-3)GlcNAc
# How it was run: as §1
# [6] = molecular target: Gal(b1-3)GlcNAc(b1-3)Gal(b1-4)Glc
# How it was run: as §1
# [7] = molecular target: Gal(b1-3)GlcNAc(b1-3)Gal(b1-4)GlcNAc
# How it was run: as §1
# [8] = molecular target: Gal(b1-3)GlcNAc(b1-3)Gal(b1-4)GlcNAc(b1-6)[Gal(b1-3)GlcNAc(b1-3)]Gal(b1-4)Glc
# How it was run: as §1
# [9] = molecular target: Gal(b1-3)GlcNAc(b1-3)Gal(b1-4)[Fuc(a1-3)]GlcNAc(b1-6)[Gal(b1-3)GlcNAc(b1-3)]Gal(b1-4)Glc
# How it was run: as §1
# [10] = molecular target: Gal(b1-3)GlcNAc(b1-3)GalNAc
# How it was run: as §1
# [11] = molecular target: Gal(b1-3)GlcNAc(b1-6)Gal(b1-4)GlcNAc
# How it was run: as §1
# [12] = molecular target: Gal(b1-3)[Fuc(a1-4)]GlcNAc
# How it was run: as §1
# [13] = molecular target: Gal(b1-3)[Fuc(a1-4)]GlcNAc(b1-2)Man(a1-3)[Gal(b1-3)[Fuc(a1-4)]GlcNAc(b1-2)Man(a1-6)]Man(b1-4)GlcNAc(b1-4)GlcNAc
# How it was run: as §1
# [14] = molecular target: Gal(b1-3)[Fuc(a1-4)]GlcNAc(b1-2)Man(a1-3)[Gal(b1-3)[Fuc(a1-4)]GlcNAc(b1-2)Man(a1-6)]Man(b1-4)GlcNAc(b1-4)[Fuc(a1-6)]GlcNAc
# How it was run: as §1
# [15] = molecular target: Gal(b1-3)[Fuc(a1-4)]GlcNAc(b1-3)Gal(b1-3)[Fuc(a1-4)]GlcNAc
# How it was run: as §1
# [16] = molecular target: Gal(b1-3)[Fuc(a1-4)]GlcNAc(b1-3)Gal(b1-4)GlcNAc
# How it was run: as §1
# [17] = molecular target: Gal(b1-3)[Fuc(a1-4)]GlcNAc(b1-3)Gal(b1-4)[Fuc(a1-3)]GlcNAc
# How it was run: as §1
# [18] = molecular target: Gal(b1-3)[GlcNAc(b1-6)]GalNAc
# How it was run: as §1
# [19] = molecular target: Gal(b1-3)[Neu5Ac(a2-6)]GalNAc
# How it was run: as §1
# [20] = molecular target: Gal(b1-3)[Neu5Ac(a2-6)]GlcNAc(b1-6)Gal(b1-4)Glc
# How it was run: as §1
# [21] = molecular target: Gal(b1-3)[Neu5Ac(b2-6)]GalNAc
# How it was run: as §1
# Gal(b1-4)Gal = molecular target: Gal(b1-4)Gal
# How it was run: as §1
# [22] = molecular target: Gal(b1-4)GalNAc(a1-3)[Fuc(a1-2)]Gal(b1-4)GlcNAc
# How it was run: as §1
# [23] = molecular target: Gal(b1-4)GalNAc(b1-3)[Fuc(a1-2)]Gal(b1-4)GlcNAc
# How it was run: as §1
# Gal(b1-4)Glc = molecular target: Gal(b1-4)Glc
# How it was run: as §1
# Gal(b1-4)Glc6S = molecular target: Gal(b1-4)Glc6S
# How it was run: as §1
# Gal(b1-4)GlcNAc = molecular target: Gal(b1-4)GlcNAc
# How it was run: as §1
# [24] = molecular target: Gal(b1-4)GlcNAc(a1-6)Gal(b1-4)GlcNAc
# How it was run: as §1
# Gal(b1-4)GlcNAc(b1-2)Man = molecular target: Gal(b1-4)GlcNAc(b1-2)Man
# How it was run: as §1
# [25] = molecular target: Gal(b1-4)GlcNAc(b1-2)Man(a1-3)Man(b1-4)GlcNAc(b1-4)GlcNAc
# How it was run: as §1
# [26] = molecular target: Gal(b1-4)GlcNAc(b1-2)Man(a1-3)[Gal(b1-4)GlcNAc(b1-2)Man(a1-6)]Man(b1-4)GlcNAc(b1-4)GlcNAc
# How it was run: as §1
# [27] = molecular target: Gal(b1-4)GlcNAc(b1-2)Man(a1-3)[Gal(b1-4)GlcNAc(b1-2)Man(a1-6)]Man(b1-4)GlcNAc(b1-4)[Fuc(a1-6)]GlcNAc
# How it was run: as §1
# [28] = molecular target: Gal(b1-4)GlcNAc(b1-2)Man(a1-3)[Gal(b1-4)GlcNAc(b1-2)][GlcNAc(b1-4)]Man(b1-4)GlcNAc(b1-4)GlcNAc
# How it was run: as §1
# [29] = molecular target: Gal(b1-4)GlcNAc(b1-2)Man(a1-3)[GlcNAc(b1-2)Man(a1-6)]Man(b1-4)GlcNAc(b1-4)GlcNAc
# How it was run: as §1
# [30] = molecular target: Gal(b1-4)GlcNAc(b1-2)Man(a1-3)[Man(a1-6)]Man(b1-4)GlcNAc(b1-4)GlcNAc
# How it was run: as §1
# [31] = molecular target: Gal(b1-4)GlcNAc(b1-2)Man(a1-6)Man(b1-4)GlcNAc(b1-4)GlcNAc
# How it was run: as §1
# [32] = molecular target: Gal(b1-4)GlcNAc(b1-2)Man(a1-6)[GlcNAc(b1-2)Man(a1-3)]Man(b1-4)GlcNAc(b1-4)GlcNAc
# How it was run: as §1
# [33] = molecular target: Gal(b1-4)GlcNAc(b1-2)Man(a1-6)[Man(a1-3)]Man(b1-4)GlcNAc(b1-4)GlcNAc
# How it was run: as §1
# [34] = molecular target: Gal(b1-4)GlcNAc(b1-2)[Gal(b1-4)GlcNAc(b1-4)]Man(a1-3)[Gal(b1-4)GlcNAc(b1-2)Man(a1-6)]Man(b1-4)GlcNAc(b1-4)GlcNAc
# How it was run: as §1
# [35] = molecular target: Gal(b1-4)GlcNAc(b1-2)[Gal(b1-4)GlcNAc(b1-4)]Man(a1-3)[Gal(b1-4)GlcNAc(b1-2)[Gal(b1-4)GlcNAc(b1-6)]Man(a1-6)]Man(b1-4)GlcNAc(b1-4)GlcNAc
# How it was run: as §1
# [36] = molecular target: Gal(b1-4)GlcNAc(b1-2)[Gal(b1-4)GlcNAc(b1-4)]Man(a1-3)[GlcNAc(b1-4)][Gal(b1-4)GlcNAc(b1-2)Man(a1-6)]Man(b1-4)GlcNAc(b1-4)GlcNAc
# How it was run: as §1
# [37] = molecular target: Gal(b1-4)GlcNAc(b1-2)[Gal(b1-4)GlcNAc(b1-4)]Man(a1-3)[GlcNAc(b1-4)][Gal(b1-4)GlcNAc(b1-2)[Gal(b1-4)GlcNAc(b1-6)]Man(a1-6)]Man(b1-4)GlcNAc(b1-4)GlcNAc
# How it was run: as §1
# [38] = molecular target: Gal(b1-4)GlcNAc(b1-2)[Gal(b1-4)GlcNAc(b1-6)]Man(a1-6)[Gal(b1-4)GlcNAc(b1-2)Man(a1-3)]Man(b1-4)GlcNAc(b1-4)GlcNAc
# How it was run: as §1
# [39] = molecular target: Gal(b1-4)GlcNAc(b1-2)[Gal(b1-4)GlcNAc(b1-6)]Man(a1-6)[GlcNAc(b1-4)][Gal(b1-4)GlcNAc(b1-2)Man(a1-3)]Man(b1-4)GlcNAc(b1-4)GlcNAc
# How it was run: as §1
# [40] = molecular target: Gal(b1-4)GlcNAc(b1-3)Gal(b1-3)GlcNAc
# How it was run: as §1
binder,measurement,setting,value
B1,glycan array binding signal (z-score),[1],-0.17
same,glycan array binding signal (z-score),[2],0.053
same,glycan array binding signal (z-score),[3],-0.129
same,glycan array binding signal (z-score),[4],2.22
same,glycan array binding signal (z-score),[5],0.234
same,glycan array binding signal (z-score),[6],-0.566
same,glycan array binding signal (z-score),[7],-0.606
same,glycan array binding signal (z-score),[8],0.605
same,glycan array binding signal (z-score),[9],0.68
same,glycan array binding signal (z-score),[10],0.072
same,glycan array binding signal (z-score),[11],-0.692
same,glycan array binding signal (z-score),[12],-0.447
same,glycan array binding signal (z-score),[13],-1.17
same,glycan array binding signal (z-score),[14],-0.384
same,glycan array binding signal (z-score),[15],-1.2
same,glycan array binding signal (z-score),[16],-0.03
same,glycan array binding signal (z-score),[17],-0.974
same,glycan array binding signal (z-score),[18],-0.573
same,glycan array binding signal (z-score),[19],0.078
same,glycan array binding signal (z-score),[20],0.213
same,glycan array binding signal (z-score),[21],-0.235
same,glycan array binding signal (z-score),Gal(b1-4)Gal,-0.028
same,glycan array binding signal (z-score),[22],0.232
same,glycan array binding signal (z-score),[23],0.082
same,glycan array binding signal (z-score),Gal(b1-4)Glc,-0.673
same,glycan array binding signal (z-score),Gal(b1-4)Glc6S,0.595
same,glycan array binding signal (z-score),Gal(b1-4)GlcNAc,0.064
same,glycan array binding signal (z-score),[24],-0.142
same,glycan array binding signal (z-score),Gal(b1-4)GlcNAc(b1-2)Man,0.223
same,glycan array binding signal (z-score),[25],-0.669
same,glycan array binding signal (z-score),[26],1.63
same,glycan array binding signal (z-score),[27],-0.048
same,glycan array binding signal (z-score),[28],-0.786
same,glycan array binding signal (z-score),[29],0.478
same,glycan array binding signal (z-score),[30],-0.71
same,glycan array binding signal (z-score),[31],-0.622
same,glycan array binding signal (z-score),[32],0.387
same,glycan array binding signal (z-score),[33],-0.541
same,glycan array binding signal (z-score),[34],-0.037
same,glycan array binding signal (z-score),[35],0.224
same,glycan array binding signal (z-score),[36],1.33
same,glycan array binding signal (z-score),[37],-0.379
same,glycan array binding signal (z-score),[38],0.317
same,glycan array binding signal (z-score),[39],-0.117
same,glycan array binding signal (z-score),[40],0.326

# Two entries from above, with tabs:
binder	measurement	setting	value
B1	glycan array binding signal (z-score)	[21]	-0.235
same	glycan array binding signal (z-score)	[36]	1.33
